These are literature values, as cited in US6482411B1, “Methods of reducing bone loss with CD40 ligand” (Board of Regents, The University of Texas System, priority 1999, dated 2002).

The conditions of this series: 5 mg alendronate; cited from earlier work.

`NCCCC(O)(P(=O)(O)O)P(=O)(O)O` [alendronate]: the “mean increase at the hip (bone mineral density)” value is 1.9% and the “mean increase at the spine (bone mineral density)” value is 3.5%.
